Experimental data: PubChem BioAssay AID652243 (Drosophila RNAi Screening Center, 2013)
In all, the deposit lists about 24,000 reagents; this is an unselected part of those that have a named target and a result. Of all reagents, 246 (1%) are marked active. 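Plates not normalised; calls are printed but the firefly/Renilla ratio behind them is not deposited; fold cut for lowering reported inconsistently.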 Raw values are not corrected between plates. A number with no mark means an inactive call. The record does not give: the amount of reagent.

Assay: 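Fly regulators of androgen-dependent reporter output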 (primary screen)
System: Drosophila S2R+ cells
Reagents: long dsRNA against Drosophila genes
Timing: 72 h (48 h, then 24 h hormone)
Challenge: synthetic androgen R1881 at 10 nM for 24 h
Read-out: 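Per-well raw luminescence of the androgen-driven firefly reporter and of the Renilla control, two replicates each, without normalisation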
Scale: firefly reporter light: higher = more light from androgen-responsive reporter; Renilla control light: higher = more constitutive control signal (cell number, transfection)
Hit rule: 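Hit when the log firefly-to-Renilla ratio dropped or increased by a fixed fold versus the mean of GFP or LacZ controls across duplicate plates; lowering cut given as 1.5 and as 3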
Calls: active = hit: reporter lowered or raised; inactive = no hit

CR33294 [SID104202307] → firefly reporter light, replicate 1: 3.18e5; firefly reporter light, replicate 2: 1.05e6; Renilla control light, replicate 1: 4.79e5; Renilla control light, replicate 2: 2.07e6
Gfrl [SID104194988] → firefly reporter light, replicate 1: 2.44e5; firefly reporter light, replicate 2: 3.10e5; Renilla control light, replicate 1: 3.60e6; Renilla control light, replicate 2: 2.99e6
Gfrl [SID104194989] → firefly reporter light, replicate 1: 68950; firefly reporter light, replicate 2: 1.01e5; Renilla control light, replicate 1: 8.08e5; Renilla control light, replicate 2: 8.67e5
Gfrl [SID104194991] → firefly reporter light, replicate 1: 2.65e5; firefly reporter light, replicate 2: 2.63e5; Renilla control light, replicate 1: 1.84e6; Renilla control light, replicate 2: 3.11e6
Gfrl [SID104195357] → firefly reporter light, replicate 1: 1.11e5; firefly reporter light, replicate 2: 80935; Renilla control light, replicate 1: 5.29e5; Renilla control light, replicate 2: 5.39e5
Gfrl [SID104195511] → firefly reporter light, replicate 1: 2.46e5; firefly reporter light, replicate 2: 3.05e5; Renilla control light, replicate 1: 3.51e6; Renilla control light, replicate 2: 3.30e6
Gfrl [SID104203931] → firefly reporter light, replicate 1: 6.19e5; firefly reporter light, replicate 2: 6.01e5; Renilla control light, replicate 1: 6.80e5; Renilla control light, replicate 2: 5.77e5
Gfrl [SID104204676] → firefly reporter light, replicate 1: 2.43e5; firefly reporter light, replicate 2: 2.16e5; Renilla control light, replicate 1: 6.56e5; Renilla control light, replicate 2: 5.13e5
Gfrl [SID104206354] → firefly reporter light, replicate 1: 5.58e5; firefly reporter light, replicate 2: 6.02e5; Renilla control light, replicate 1: 3.67e5; Renilla control light, replicate 2: 4.84e5
Gfrl [SID104207352] → firefly reporter light, replicate 1: 3.46e5; firefly reporter light, replicate 2: 4.73e5; Renilla control light, replicate 1: 1.86e6; Renilla control light, replicate 2: 1.83e6
mute [SID104186354] → firefly reporter light, replicate 1: 55765; firefly reporter light, replicate 2: 82792; Renilla control light, replicate 1: 1.17e6; Renilla control light, replicate 2: 1.17e6
mute [SID104202288] → firefly reporter light, replicate 1: 4.18e5; firefly reporter light, replicate 2: 7.47e5; Renilla control light, replicate 1: 9.47e5; Renilla control light, replicate 2: 1.52e6
mute [SID104208392] → firefly reporter light, replicate 1: 4.68e5; firefly reporter light, replicate 2: 4.01e5; Renilla control light, replicate 1: 1.26e6; Renilla control light, replicate 2: 1.26e6
CG31606 [SID104180804] → firefly reporter light, replicate 1: 79907; firefly reporter light, replicate 2: 1.05e5; Renilla control light, replicate 1: 2.66e5; Renilla control light, replicate 2: 2.56e5
